Laboratory results published in PubChem BioAssay (Tox21).
Where “and” joins values, the source holds several entries; their conditions need not be identical. Equal entries are not always repeated. Inconclusive means that the source gave no clear call. Such entries were picked first, then a sample of the others. Where the call is inconclusive, the potency comes from a doubtful curve fit. Calls of active or inactive are those of the source. The call rests on the fitted dose curve.

Protein sequences, listed by entry. Tags and fused reporters are not part of them. Lines headed by an entry give the natural chain unless they say otherwise; changes in a name come on top.
UniProt P19793: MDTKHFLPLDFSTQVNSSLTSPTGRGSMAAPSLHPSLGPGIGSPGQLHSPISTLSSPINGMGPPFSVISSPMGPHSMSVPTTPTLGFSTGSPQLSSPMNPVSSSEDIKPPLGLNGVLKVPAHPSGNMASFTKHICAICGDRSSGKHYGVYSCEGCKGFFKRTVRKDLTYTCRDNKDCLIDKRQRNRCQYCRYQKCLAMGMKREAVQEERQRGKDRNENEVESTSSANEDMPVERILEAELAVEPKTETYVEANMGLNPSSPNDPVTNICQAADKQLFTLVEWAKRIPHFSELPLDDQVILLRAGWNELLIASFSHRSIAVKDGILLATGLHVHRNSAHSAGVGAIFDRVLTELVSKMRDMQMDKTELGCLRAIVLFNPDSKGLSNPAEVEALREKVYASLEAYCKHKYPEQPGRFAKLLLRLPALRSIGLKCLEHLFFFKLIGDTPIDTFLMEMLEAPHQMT

biological target: Retinoic acid receptor RXR-alpha (Homo sapiens) (UniProt P19793); assay: qHTS assay to identify small molecule agonists of the RXR signaling pathway (AID 1159527); details: HEK293T RXRa-UAS-bla, beta-lactamase ratio, 16 h; activation: at 76.8 µM (top of the series) unless noted; further: nearly all actives have a fitted effect of over 35% in size
Procedure, shortened: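 GeneBLAzer RXR-alpha-UAS-bla HEK 293T cells in 2% charcoal-stripped FBS medium were exposed to compounds for 16 hr at 37 C in agonist mode. Beta-lactamase reporter read as 460/530 nm FRET ratio after 2 hr substrate loading.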
On the % scale 0 is the no-effect control and ±100 the full control effect; potency means the concentration at half of the fitted maximal effect.

SMILES	Potency	activation
CC(=O)c1ccccc1	inactive	–
C=C(C)C(=O)OCCCCCCOC(=O)C(=C)C	–	inactive: -4.28%
CC(C)CCCCCCOC(=O)C1CCCCC1C(=O)OCCCCCCC(C)C (centres undefined)	–	inactive: -5.22%
CCCOC(C)=O	–	inconclusive: 15.3%
CCOc1ccc(Cc2nccc3cc(OCC)c(OCC)cc23)cc1OCC	–	inconclusive: -14.4% [at 35.3 µM]
CCCCCCCCCCOC(=O)c1ccccc1C(=O)OCCCCCCCC	–	inactive: -0.0207%
COc1cc(C(C)=O)ccc1OCCCN1CCC(c2noc3cc(F)ccc23)CC1	–	inconclusive: -20.6% [at 35.3 µM]
OCCN(CCO)c1ccccc1	–	inactive: 9.98%
CC(=O)c1c(C)cc(C(C)(C)C)cc1C	–	inactive: 4.77%
CC1=CCC2C(C1)C2(C)C (centres undefined)	–	inactive: -7%
COC(=O)CC#N	–	inactive: -2.52%
O=C1CC2(CCCC2)CC(=O)N1	–	inconclusive: 7.68% [at 35.3 µM]
CC(=O)Nc1ccc(CC(=O)O)cc1	–	inconclusive: 10.8%
CCC(Cl)C(Cl)C(Cl)CC(Cl)C(Cl)C(C)Cl (centres undefined)	inconclusive: 17.4 µM [inhibitor]	–
CC1(C)CC(=O)CC(C)(C)N1	–	inconclusive: 9.97%
CCCCC(CC)CN1C(=O)C2C3C=CC(C3)C2C1=O (centres undefined)	inconclusive: 21.9 µM [inhibitor, partial curve]	–
CO/N=C1\CN(c2nc3c(cc2F)c(=O)c(C(=O)O)cn3C2CC2)CC1CN (centres undefined)	–	inconclusive: 7.02% [at 35.3 µM]
CN1C(C(=O)Nc2ccccn2)=C(O)c2ccccc2S1(=O)=O	–	inconclusive: 9.63% [at 35.3 µM]
C=CC(=O)OCCOCCOCC	–	inactive: 0.178%
Oc1ccc(Oc2ccccc2)cc1	–	inconclusive: -13.2%

2 entries from above, set out differently:
CCC(Cl)C(Cl)C(Cl)CC(Cl)C(Cl)C(C)Cl (centres undefined)
  Potency: inconclusive: 17.4 µM [inhibitor]
Oc1ccc(Oc2ccccc2)cc1
  activation: inconclusive: -13.2%

More structures follow:

SMILES	Potency	activation
C=CC(C)(CCC=C(C)C)OC(=O)C(C)C (centres undefined)	–	inactive: -4.36%
C[C@H]1[C@H](NC(=O)/C(=N/OC(C)(C)C(=O)O)c2csc(N)n2)C(=O)N1S(=O)(=O)O (stereo in doubt)	–	inactive: -1.9% [at 35.3 µM]
O=C(O)c1cc2ccccc2cc1O	inactive	–
CCCCOC(=O)[C@H](C)O	–	inactive: 9.98%
CC(C)[N+](C)(C)CC(O)COc1cccc2ccccc12 (centres undefined)	–	inactive: -2.62% [at 35.3 µM]
Cc1cc2c(cc1S(N)(=O)=O)S(=O)(=O)CCC2	–	inactive: 7.23% [at 35.3 µM]
C[C@]12CCC(=O)C=C1CC[C@@H]1[C@@H]2[C@@H](O)C[C@@]2(C)[C@H]1CC[C@]2(O)C(=O)COC(=O)CCC(=O)O	–	inconclusive: 7.07% [at 35.3 µM]
C=C1C(=C/C=C2\CCC[C@]3(C)[C@@H]([C@H](C)/C=C/[C@@H](O)C4CC4)CC[C@@H]23)C[C@@H](O)C[C@@H]1O	inconclusive: 10.7 µM [fluorescent, partial curve, poor fit]	–
c1c[nH]cn1	–	inconclusive: 20.6% and inconclusive: -22.6%
O=[N+]([O-])c1ccc(O)cc1	–	inconclusive: 10.9%
CCCCCCCCCCCCCCCC(=O)OC[C@H](O)[C@H]1OC(=O)C(O)=C1O	inconclusive: 11 µM [rising, partial curve, poor fit]	–
CO[C@@H]1COCC[C@@H]1N[C@@H]1CC[C@@](C(=O)N2CCc3ncc(C(F)(F)F)cc3C2)(C(C)C)C1	–	inconclusive: 2.11%
Cc1ccc(NC=O)c(C)c1	–	inconclusive: -0.351%
COc1ccccc1O	inconclusive: 22.1 µM [activator, partial curve]	–
Nc1ncnc2c1ncn2[C@@H]1O[C@H](CO)[C@@H](O)[C@H]1O	inconclusive: 23.9 µM [activator]	–
O=C1Nc2ccc(Cl)cc2[C@@](C#CC2CC2)(C(F)(F)F)O1	–	inconclusive: -10.9% [at 35.3 µM]
CCCCOCCOC(=O)CCCCCCCCC(=O)OCCOCCCC	–	inactive: -14.9%
CC1(C)[C@H](C(=O)O)N2C(=O)C[C@H]2S1(=O)=O	inconclusive: 2.13 µM [inhibitor, partial curve]	–
Nc1nnc(-c2ccc([N+](=O)[O-])o2)o1	inconclusive: 13.8 µM [inhibitor, partial curve]	–
